# Taken from: PubChem BioAssay AID743121 (NCATS, 2013)
# Aim: 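Genes whose silencing strengthens cell killing by camptothecin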 (primary screen)
# Cell system: MDA-MB-231 cells, a human breast cancer line
# Knock-down reagent: single siRNA against human genes, 20 nM siRNA (0.8 pmol per well)
# Time to read-out: 120 h (drug added 48 h after transfection, read 72 h later)
# Treatment: camptothecin 20 nM (about EC30) for 72 h; vehicle 0.1% DMSO in parallel plates
# Read-out: 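Cell viability by ATP luminescence (CellTiter-Glo) as % of non-targeting siRNA wells, and the log2 ratio of viability without drug over viability with camptothecin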
# Scale: log2 vehicle/camptothecin viability: higher = stronger sensitisation to camptothecin; viability with camptothecin and viability without drug: higher = more viable cells
# Rule for the call: 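Each gene scored by redundant siRNA activity (RSA) over its individual siRNA ratios; a gene is called active at p < 0.001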
# Shown is a random part of about 26,000 reagents tested. In the full data, 167 (0.63%) are marked active. 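Calls are per gene from RSA p-values that are not deposited; an individual active-marked siRNA can sensitise only weakly.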 The numbers tell different reagents against one gene apart.
target gene,siRNA no.,log2 vehicle/camptothecin viability,viability with camptothecin (% of control),viability without drug (% of control),outcome
SNED1,1,-0.124,83.1,76.2,inactive
SNED1,2,-0.143,66.1,59.8,inactive
SNED1,3,0.0688,83.8,87.9,inactive
MTR,1,-0.175,69.8,61.8,inactive
MTR,2,-0.582,115,76.5,inactive
MTR,3,0.117,66.6,72.3,inactive
MTR,4,-0.13,65.7,60,inactive
GPR150,1,-0.496,33.3,23.6,inactive
GPR150,2,-0.353,8.22,6.43,inactive
GPR150,3,-0.279,52.1,42.9,inactive
GPR150,4,-0.54,64.2,44.2,inactive
PIK3C2A,1,-0.19,116,102,inactive
PIK3C2A,2,-0.0385,99.7,97.1,inactive
PIK3C2A,3,-0.0532,75.5,72.7,inactive
PIK3C2A,4,0.149,43.1,47.7,inactive
GRID2,1,-0.0175,46.7,46.1,inactive
GRID2,2,-0.0227,81.1,79.8,inactive
GRID2,3,-0.0938,94.9,88.9,inactive
GRID2,4,-0.257,98.4,82.3,inactive
TRIB2,1,-0.441,93,68.5,inactive
TRIB2,2,-0.477,108,77.5,inactive
TRIB2,3,0.318,75.2,93.7,inactive
TRIB2,4,0.464,16.4,22.7,inactive
POU3F4,1,-0.119,107,98.8,inactive
POU3F4,2,-0.219,102,87.5,inactive
POU3F4,3,0.111,55,59.4,inactive
POU3F4,4,0.296,79.3,97.4,inactive
SPHK1,1,0.129,95.6,105,inactive
SPHK1,2,-0.209,15,13,inactive
SPHK1,3,-0.399,57.5,43.6,inactive
SPHK1,4,0.197,30.5,35,inactive
RNF40,1,-0.139,97.5,88.6,inactive
RNF40,2,-0.441,92.7,68.3,inactive
RNF40,3,-0.0278,114,112,inactive
RNF40,4,-0.415,57.3,42.9,inactive
NOD1,1,0.0553,61,63.4,inactive
NOD1,2,-0.226,53.3,45.6,inactive
NOD1,3,-0.41,60,45.1,inactive
NOD1,4,0.361,55.9,71.8,inactive
FXYD2,1,-0.347,80.3,63.2,inactive
FXYD2,2,-0.347,61.9,48.7,inactive
FXYD2,3,-0.148,111,100,inactive
FXYD2,4,-0.264,102,84.7,inactive
TLK1,1,-0.197,101,88.4,inactive
TLK1,2,0.165,76.8,86,inactive
TLK1,3,-0.24,110,93.5,inactive
TLK1,4,0.00318,87.7,87.8,inactive

Quoted from the listing for reference:
target gene,siRNA no.,log2 vehicle/camptothecin viability,viability with camptothecin (% of control),viability without drug (% of control),outcome
SPHK1,2,-0.209,15,13,inactive
SPHK1,3,-0.399,57.5,43.6,inactive
SPHK1,4,0.197,30.5,35,inactive
RNF40,1,-0.139,97.5,88.6,inactive
RNF40,2,-0.441,92.7,68.3,inactive
RNF40,3,-0.0278,114,112,inactive
